The values below come from PubChem BioAssay (Tox21).

The chains behind the UniProt entries cited, without tags or fusion partners.
UniProt P28223, whole entry, looked up: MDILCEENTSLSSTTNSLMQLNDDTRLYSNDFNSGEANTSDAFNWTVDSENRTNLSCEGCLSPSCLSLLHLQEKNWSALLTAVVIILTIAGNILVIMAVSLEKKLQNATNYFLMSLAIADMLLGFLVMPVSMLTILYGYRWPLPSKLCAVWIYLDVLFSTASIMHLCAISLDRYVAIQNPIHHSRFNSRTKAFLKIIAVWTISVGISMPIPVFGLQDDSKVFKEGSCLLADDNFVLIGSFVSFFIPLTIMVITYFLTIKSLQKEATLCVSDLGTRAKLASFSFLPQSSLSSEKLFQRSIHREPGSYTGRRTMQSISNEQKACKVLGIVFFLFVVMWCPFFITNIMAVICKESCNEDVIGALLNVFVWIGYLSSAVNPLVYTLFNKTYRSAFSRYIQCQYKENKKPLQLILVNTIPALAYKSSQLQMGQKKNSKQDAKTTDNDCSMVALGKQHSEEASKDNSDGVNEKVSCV
UniProt P14416, whole entry, looked up: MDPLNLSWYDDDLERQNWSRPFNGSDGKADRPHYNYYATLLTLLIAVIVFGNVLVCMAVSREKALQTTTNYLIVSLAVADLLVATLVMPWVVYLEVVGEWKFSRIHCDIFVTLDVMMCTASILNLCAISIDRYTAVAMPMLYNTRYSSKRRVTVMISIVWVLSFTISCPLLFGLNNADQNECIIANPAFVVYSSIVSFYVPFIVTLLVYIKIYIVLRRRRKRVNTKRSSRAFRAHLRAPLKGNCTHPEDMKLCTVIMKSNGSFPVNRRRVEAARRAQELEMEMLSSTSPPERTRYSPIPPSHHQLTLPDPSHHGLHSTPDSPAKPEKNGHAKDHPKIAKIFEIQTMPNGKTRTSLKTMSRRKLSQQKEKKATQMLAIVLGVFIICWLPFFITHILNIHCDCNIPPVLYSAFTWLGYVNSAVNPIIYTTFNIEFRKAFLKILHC

In test [1] the target is 5-hydroxytryptamine receptor 2A (Homo sapiens) (UniProt P28223). Put plainly: 5-hydroxytryptamine receptor 2A (HTR2A) small molecule antagonists, cell-based qHTS assay (AID 1963586). Note: nearly all actives have a fitted effect of over 45% in size. As to conditions: HTR2A-CHO cells, DOI-induced calcium flux, fluorescence. Put shortly: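 Antagonist-mode intracellular calcium assay: DOI (4 nM) added after 5 min compound pre-incubation at room temperature to dye-loaded HTR2A-CHO cells. Fluorescence followed for 3 min, sampled every second.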

The target is the same in test [2]. Put plainly: 5-hydroxytryptamine receptor 2A (HTR2A) small molecule agonists, cell-based qHTS assay (AID 1963587). Note: nearly all actives have a fitted effect of over 30% in size. As to conditions: HTR2A-CHO cells, calcium flux fluorescence, agonist mode. The text has this:
National Center for Advancing Translational Sciences [NCATS]
Division of Preclinical Innovation [DPI]
U.S. Environmental Protection Agency [EPA]
National Institutes of Environmental Health Sciences [NIEHS]
National Toxicology Program [NTP]
U.S. Food and Drug Administration [FDA]
The HTR2A receptor is a subtype of the 5-HT2 receptor that belongs to the serotonin receptor family and is a G protein-coupled receptor (GPCR). The HTR2A-CHO cell line stably expressing human 5-hydroxytryptamine receptor 2A (HTR2A) can be used for screening agonists of interactions between 5-HT2 and its ligands. The HTR2A-CHO calcium flux assay is a homogeneous fluorescence-based assay for detecting the intracellular calcium level using FDSS kinetic plate reader system.
HTR2A-CHO cells were dispensed at 2000 cells/3uL/well in 1536-well black-clear bottom plates using a Multidrop Dispenser. After the assay plates were incubated at a 37 C/5% CO2 incubator for 18 h, 3 uL of Dye Loading Buffer was transferred to the assay plate by a Flying Reagent Dispenser. The assay plates were incubated at 37 C for 1h. For agonist mode, 23 nL of compounds dissolved in DMSO, positive controls or DMSO only was transferred to the assay plate by a pin tool. The fluorescence intensity in the plates was measured using FDSS 7000EX kinetic plate reader for 2 min at 1 sec intervals.
On the technique in general: Quantitative high-throughput screening tests each substance at several concentrations.

Test [3] addresses Beta-2 adrenergic receptor (Homo sapiens) (UniProt P07550). Put plainly: Adrenergic beta2 receptor (ADRB2) small molecule antagonists, cell-based qHTS assay (AID 1963592). Note: nearly all actives have a fitted effect of over 50% in size. As to conditions: CHO-ADRB2 cells, isoproterenol-stimulated cAMP HTRF ratio, 0.5 h. The text has this:
U.S. Tox21 Program National Center for Advancing Translational Sciences [NCATS] Division of Preclinical Innovation [DPI] U.S. Environmental Protection Agency [EPA] National Institutes of Environmental Health Sciences [NIEHS] National Toxicology Program [NTP] U.S. Food and Drug Administration [FDA] Tox21 Assay Overview: Beta adrenergic receptors (Beta-ARs) belong to the G-protein coupled receptor (GPCR) superfamily, includes three subtypes - beta1, beta2, and beta3. Beta1-AR is the predominant receptor subtype expressed in the heart, and beta2-AR is expressed in the kidney, lung, blood vessel and in the heart, and beta3 is found in the adipocytes. […] The principle of cAMP-Gs dynamic assay is based on HTRF technology, which facilitates the fluorescence resonance energy transfer (FRET) between donor Europium cryptate and acceptor d2-labeled cAMP. […]
Tox21 Assay Protocol Summary: CHO-ADRB2 cells were dispensed at 1,000/well in 4uL assay medium into white/solid 1536-well plates (Greiner Bio-One North America Inc., Monroe, NC) using a Multidrop Combi dispenser (ThermoFisher Scientific, Waltham, MA). […] The fluorescence signal was measured at two different wavelengths (665nm and 615nm) using an Envision plate reader (Perkin Elmer, Shelton, CT). Data were expressed as the ratio of 665 nm/615 nm.

Test [4] deals with D(2) dopamine receptor (Homo sapiens) (UniProt P14416). Put plainly: Dopamine D2 receptor (DRD2) small molecule antagonists, cell-based qHTS assay (AID 1963595; active = well fitted inhibition curve with a large enough effect in the signal ratio in the repeat runs, with a control signal flat; the % refers to the signal ratio). Particulars: HEK293-DRD2 cAMP HTRF antagonist mode. Put shortly:
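In this cell-based antagonist screen, compounds act for 10 min at room temperature before a 30 min challenge with 12 nM quinpirole and 200 nM NKH477. cAMP is quantified by HTRF competition in DRD2-HEK293 cells containing 0.1 mM Ro20-1724.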

Molecules are shown by their SMILES. Several values for one entry are separate records, joined by “and”; a condition that tells them apart may be missing. Equal values may be shown once. Only a part is listed here, and it is no random draw. Inconclusive results are not listed. Some compounds were tested as several samples or in several runs, with calls that do not always agree. Activity calls are given as the source filed them. Unless noted, calls come from the whole dose curve.
Potency is the fitted concentration of half-maximal effect.

Regarding `CCCN[C@H]1CCc2nc(N)sc2C1`, the Potency was active: 4.03 µM in test [1]; active: 1.87 µM and active: 4.77 µM in test [2].
With `COc1cc(C(C)=O)ccc1OCCCN1CCC(c2noc3cc(F)ccc23)CC1`, in test [1], the Potency was active: 0.0018 µM.
As for `Cc1cc(C(C)(C)C)cc(C)c1CC1=NCCN1`, the Potency in test [2] is active: 134 nM.
In the case of `CN1CCC[C@@H]1CCO[C@](C)(c1ccccc1)c1ccc(Cl)cc1`, the Potency in test [3] was active: 29.8 µM.
Turning to `CNCCCC12CCC(c3ccccc31)c1ccccc12`, in test [4], the Potency was active: 61.1 µM.
